For the assay, the system named is RAG01 (derived from fibroblasts of a patient diagnosed with SSMD) fibroblasts. Nature of the assay: CellTiter-Glo concentration response in RAG01 fibroblasts. The assay is classed as cell-based. The settings on record: Homo sapiens, Fibroblast, 72 h. On the procedure: Compounds described herein were tested in three cell lines, RAG01 (derived from fibroblasts of a patient diagnosed with SSMD) fibroblasts, RAG02 (derived from fibroblasts of the patient's parent), and GM09503 (from supplier Corriell) (derived from a healthy donor) to each generate 10-point concentration response curves (CRC). The three cell lines were each thawed seven (7) days prior to seeding. The RAG01 cells were thawed in a medium supplemented with a-tocopherol. Cells were passaged four (4) days prior to the seeding. The α-tocopherol was removed from the RAG01 cells. Cells were then seeded at 900 cells per well in 384-well plates. Two replicates were prepared for two independent (replicate) experiments. All plates were then incubated with compounds described herein for 72 hours, prior to CellTiter-Glo assay. […] The assay was run using the CellTiter-Glo (Promega) following manufacturer's guidelines and luminescent spectrophotometric reading on PHERAstar FSX (BMG Labtech). A 0.1% dimethylsulfoxide (DMSO) was used as a blank (vehicle control); and a 1 μM Ferrostatin-1 was used as a control (CTRL).
The raw data was analyzed using Activity Base® software. The compounds were evaluated by efficacy (percentage effect) normalized to the vehicle control. The percentage effect (PE) was determined from the signal increase in comparison to the vehicle control according to the formula below: […]
(ATP-based viability assays read luminescence as a measure of living cells.)

Consider one compound from US20230414628A1, “METHODS FOR TREATING DISEASES MEDIATED BY GLUTATHIONE PEROXIDASE 4” (priority 2022, published 2023).

Take `Cc1cc2c(s1)Nc1ccccc1N=C2N1CCN(C)CC1` [compound 33, olanzapine]: the concentration giving a half-maximal response (EC50) (commonly the concentration that produces a half-maximal response) was 1.98 µM. This counts as single-digit micromolar.
